Reference: patent publication US10801050B2, “Microorganism modified for the assimilation of levulinic acid” (priority 2015, dated 2020)

System: Ralstonia eutropha DSM428
Experiment: Quantitative proteomics of Ralstonia eutropha DSM428 cultivated with or without levulinic acid (nanoLC-MS/MS)
Format: cell-based
Settings: Ralstonia eutropha DSM428, shake flasks, LB rich medium, nanoLC-MS/MS protein abundance; for % of total proteins Without LA: 0 g/L levulinic acid; for % of total proteins With LA: 5 g/L levulinic acid

Molecule | % of total proteins Without LA | % of total proteins With LA
DNAK_CUPNH (protein, UniProt Q0K757 1-650, looked up) Chaperone protein DnaK: MGKIIGIDLGTTNSCVAILEGNTPKVIENSEGARTTPSIIAYMEDGEILVGAPAKRQAVTNPRNTLYAVKRLIGRKFEEKEVQKDIGLMPYSIVKADNGDAWVSVRDQKLAPPQVSAEVLRKMKKTAEDYLGEPVTEAVITVPAYFNDSQRQATKDAGRIAGLDVKRIINEPTAAALAFGMDKNEKGDRKIAVYDLGGGTFDISIIEIADVDGEKQFEVLSTNGDTFLGGEDFDQRIIDYIISEFKKDQGVDLSKDVLALQRLKEAAEKAKIELSSSQQTEINLPYITADASGPKHLNLKMTRAKLESLVEELITRTIEPCRIAIKDAGVKVSDIDDVILVGGMTRMPKVQEQVKEFFGKEARKDVNPDEAVAVGAAIQGSVLSGDRTDVLLLDVTPLSLGIETLGGVMTKMITKNTTIPTKHAQVFSTADDNQPAVTIKVFQGEREMASGNKLLGEFNLEGIPPAARGTPQIEVSFDIDANGILHVGAKDKATGKENRITIKANSGLSEDEIQRMVKDAEANAEEDKKARELADARNQADALIHSTKKALTEYGDKLEAGEKEKIEAAIKELEDAARGGDKAEIDAKVNALSEVSQKLGEKVYADMQAKAGEGATAGAAAGAGAAGGQQAQPQDDNVVDAEFKEVNDKK | 1.18 % of total proteins | 0.90 % of total proteins
EFP_CUPNH (protein, UniProt Q0K8N9 1-186, looked up) Elongation factor P: MKIAQELRVGNVFMIGGDPMVVQKAEYNKSGRNAAVVKMKYKNLLTDAPGESVFKADDKFEVVVLERRECTYSYFADPMYVFMDADYNQYEVEKDSMGDSLNYLEDGMNVEVVFYNDKAISVEMPTTLVREIVYTEPAVKGDTSSGKVLKGAKINTGFELQVPLFCNIGDKIEIDTRTGEYRSRAN | 0.29 % of total proteins | 0.30 % of total proteins
EFTS_CUPNH (protein, UniProt Q0KA17 1-292, looked up) Elongation factor Ts: MAAITASMVAELRAKTDAPMMECKKALTEADGDLDKAEELLRVKLGNKASKAASRVTAEGVVASFIDGTTGVLVELNCETDFVSKNDDFLAFSAKVAELIAKQNPADVAALSALEIDGVSVEATRTALIGKIGENLTIRRFARYANGGKLVSYLHGTRIGVMVEFDGDEAAAKDVAMHVAAMKPVSLSAEQVPADLIAKERSIAEQKAAESGKPAEIVAKMVEGSVQKYLKEVSLFNQPFVKNDKQTVEQMLKAANTTVKGFTLFVVGEGIEKKQDDFAAEVAAQVAAAQKG | 0.65 % of total proteins | 0.68 % of total proteins
GLYA_CUPNH (protein, UniProt Q0K7W0 1-415, looked up) Serine …: MFERSRFTIDQIDPEVFAAIQQENQRQEDHIELIASENYTSPAVMAAQGSQLTNKYAEGYPGKRYYGGCEYVDVVEQLAIDRVKQLFGAEAANVQPNSGSQANQGVYFAVLKPGDTIMGMSLAEGGHLTHGMALNMSGKWFNVVSYGLNAQEDIDYDALEKLAQEKKPKLIIAGASAFALRIDFERISKVAKSIGAYFMVDMAHYAGLIAAGVYPNPVPHADFVTTTTHKSLRGPRGGVILMKAEHEKAINSAIFPGIQGGPLMHVIAGKAVAFKEALTPEFKEYQQQVVKNAAVLAETLIARGLRIVSGRTESHVMLVDLRAKNITGKEAERILGEAHITVNKNAIPNDPEKPFVTSGIRLGSPAMTTRGFKEEEARIVGNLIADVLDNPHDAANIASVREQAAALTKRFPVYG | 1.01 % of total proteins | 0.91 % of total proteins
ILVC_CUPNH (protein, UniProt Q0KCU2 1-338, looked up) Ketol-acid reductoisomerase …: MKVFYDKDADLSLIKGKNVTIIGYGSQGHAHALNLKDSGVNVTVGLRKSGASWNKAANAGLQVKEVAEAVKGADVVMILLPDEQIADVYKNEVHDNIKEGAALAFAHGFNVHYGAVIPRADLDVIMIAPKAPGHTVRATYTQGGGVPHLIAVHQNKSGAARDIALSYATANGGGRAGIIETNFREETETDLFGEQAVLCGGTVELIKAGFETLVEAGYAPEMAYFECLHELKLIVDLIYEGGIANMNYSISNNAEYGEYVTGPRVVTEETKKAMKQCLTDIQTGEYAKSFLLENKAGAPTLISRRRLTAEHQIEEVGAKLRAMMPWIAKNKMVDQSKN | 1.06 % of total proteins | 0.95 % of total proteins
KDSA_CUPNH (protein, UniProt Q0KCE4 1-289, looked up) 2-dehydro-3-deoxyphosphooctona …: MKLCGFEAGLDKPFFLIAGPCVIESEQMALDTAGELKAITAELGIPFIYKSSFDKANRSSGKSFRGLGMEKGLEILATVKREIGVPVLTDIHEIDEIKPVAAVVDVLQTPAFLCRQTDFIRACAQSGKPVNIKKGQFLAPHDMKNVIDKARDAAREAGLPDDVFMACERGVSFGYNNLVSDMRSLAIMRETGAPVVFDATHSVQLPGGQGTSSGGQREFVPVLSRAAVATGVAGLFMETHPDPSKAMSDGPNAVPLSRMKELLAVLKELDTLVKRAGFLEDNFGWPACA | 0.14 % of total proteins | 0.11 % of total proteins
LPXA_CUPNH (protein, UniProt Q0KA28 1-267, looked up) Acyl-[acyl-carrier-protein]--U …: MTQIHPTALVDPKAELASDVTVGPFSIVGPNVRIGSGTRVGSHTTVEGYTTIGEGNTIGPYASVGGVPQDMKYRNEPTRLEIGDRNTIREFTTIHTGTVQDRGLTSLGNDNWIMAYVHIAHDCTVGNHTVFSSNAQIAGHVEVGDWAILGGMSGVHQFVRIGAHAMLGGASALVQDVPPFVIAASDKSGNKATPHGVNVEGLRRRGFDAGQIAALRQAYKLLYKSDLSFDEARNEITALLGQSDAGTAAPLRAFVDFLAATQRGIVR | 0.20 % of total proteins | 0.22 % of total proteins
METK_CUPNH (protein, UniProt Q0KF39 1-387, looked up) S-adenosylmethionine synthase: MANDFLFTSESVSEGHPDKVADQISDAVLDAILAQDKYARVAAETLCNTGLVVLAGEITTTANVDYIQIARDTIKRIGYDNTDYGIDYKGCAVLVAYDKQSPDIAQGVDRASDDYLNQGAGDQGLMFGYACDETPELMPFPIYYAHRLVERQSLLRRDGRLPWLRPDAKSQVTVRYVDGKPHSVDTVVLSTQHSPDITQAQIREAVIEEIIKPVLPAEMLKETKYLVNPTGRFVIGGPQGDCGLTGRKIIVDTYGGASPHGGGAFSGKDPSKVDRSAAYAARYVAKNVVASGLARQCQVQVSYAIGVARPINVTVYTEGTGKIPDAKIAELVQEHFDLRPKGIVQMLDLLRPIYEKTAAYGHFGREEPEFSWEATDKAAALRAAAGL | 0.41 % of total proteins | 0.39 % of total proteins
NDK_CUPNH (protein, UniProt Q0K958 1-141, looked up) Nucleoside diphosphate kinase: MAIERTLSIIKPDAVAKNVIGQIYARFEAAGLKIVAAKMVHLSRGEAEQFYAVHKERPFFKDLVDFMVSGPVMIQALEGENAIAKNRDLMGATDPKKAEKGTIRADFADSIDANAVHGSDAAETAAVEVSFFFPGMNVYSR | 0.40 % of total proteins | 0.34 % of total proteins
